Reference: PMC9753777
Results are given in words; binding and its absence hold for the method and conditions named. Binding seen in cells or lysates may run through a third protein. Some results given as binding are weak or reduced against the parent protein; the word gives no strength.

Chains of the proteins cited; added tags and fusions are not shown.
UniProt P0C746: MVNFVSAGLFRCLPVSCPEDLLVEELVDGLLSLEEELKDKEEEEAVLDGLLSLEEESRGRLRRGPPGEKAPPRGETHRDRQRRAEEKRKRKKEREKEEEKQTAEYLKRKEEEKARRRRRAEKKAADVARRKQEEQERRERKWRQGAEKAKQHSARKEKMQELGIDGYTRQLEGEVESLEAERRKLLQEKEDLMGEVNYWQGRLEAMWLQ
UniProt P06748: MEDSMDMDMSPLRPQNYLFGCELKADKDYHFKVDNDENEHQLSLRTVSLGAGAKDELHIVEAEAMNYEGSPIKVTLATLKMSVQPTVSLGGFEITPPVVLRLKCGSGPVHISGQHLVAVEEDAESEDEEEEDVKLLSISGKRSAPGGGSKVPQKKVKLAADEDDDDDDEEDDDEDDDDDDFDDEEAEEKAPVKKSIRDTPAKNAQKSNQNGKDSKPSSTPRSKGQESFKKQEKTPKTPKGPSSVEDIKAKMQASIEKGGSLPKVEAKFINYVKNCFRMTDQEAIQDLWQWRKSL

What was measured:
[1] = target: Myc-tagged uHBZ (HTLV-1 basic leucine zipper factor, unspliced isoform) (HTLV-1) (UniProt P0C746); assay: co-IP; lysates of transfected 293T cells (1% Triton, 100 mM NaCl, pH 8) precipitated with anti-Myc antibody on Dynabeads Protein G, overnight 4°C; Western blot with anti-B23, anti-DsRed, anti-C23, anti-Myc
[2] = target: Myc-tagged uHBZ (HTLV-1 basic leucine zipper factor, unspliced isoform) (HTLV-1) (UniProt P0C746); assay: co-IP; lysates of SupT1 T cells transfected with Myc-tagged sHBZ or uHBZ precipitated with anti-Myc antibodies; Western blot with anti-B23

## nucleophosmin (NPM1/B23), endogenous (from UniProt P06748 1-294)
[1]
  binding: binds
[2]
  binding: binds
